Sequences and labels used below:
T1: PIN5 loop, amino acids 152-200 (Arabidopsis thaliana) (UniProt Q9FFD0)
T1 sequence: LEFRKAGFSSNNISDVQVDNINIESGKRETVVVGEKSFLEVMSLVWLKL

T2: PIN1 hydrophilic loop (PIN1 HL), amino acids 158-460 (Arabidopsis thaliana) (UniProt Q9C6B8)
T2 sequence: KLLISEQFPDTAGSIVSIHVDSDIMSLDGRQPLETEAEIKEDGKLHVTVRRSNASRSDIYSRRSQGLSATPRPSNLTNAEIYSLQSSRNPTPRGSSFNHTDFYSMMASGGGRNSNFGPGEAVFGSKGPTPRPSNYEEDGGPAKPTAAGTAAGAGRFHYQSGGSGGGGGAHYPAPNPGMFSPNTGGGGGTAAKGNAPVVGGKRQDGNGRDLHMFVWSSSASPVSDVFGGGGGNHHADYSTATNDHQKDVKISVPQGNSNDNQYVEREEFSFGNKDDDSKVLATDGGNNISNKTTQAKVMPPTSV

T3: PIN7 hydrophilic loop, amino acids 167-460 (Arabidopsis thaliana) (UniProt Q940Y5)
T3 sequence: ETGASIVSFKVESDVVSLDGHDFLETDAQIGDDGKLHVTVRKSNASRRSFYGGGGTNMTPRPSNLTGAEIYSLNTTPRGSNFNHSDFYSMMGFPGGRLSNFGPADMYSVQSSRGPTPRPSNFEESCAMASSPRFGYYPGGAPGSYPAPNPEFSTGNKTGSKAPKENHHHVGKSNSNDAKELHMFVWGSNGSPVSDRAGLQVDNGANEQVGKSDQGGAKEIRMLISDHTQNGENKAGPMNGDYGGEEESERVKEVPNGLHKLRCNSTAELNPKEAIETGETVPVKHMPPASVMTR

T4: PIN8 loop, amino acids 157-218 (Arabidopsis thaliana) (UniProt Q9LFP6)
T4 sequence: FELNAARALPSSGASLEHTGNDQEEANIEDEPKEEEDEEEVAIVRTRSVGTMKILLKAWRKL

T5: PIN3 hydrophilic loop, amino acids 167-482 (Arabidopsis thaliana) (UniProt Q9S7Z8)
T5 sequence: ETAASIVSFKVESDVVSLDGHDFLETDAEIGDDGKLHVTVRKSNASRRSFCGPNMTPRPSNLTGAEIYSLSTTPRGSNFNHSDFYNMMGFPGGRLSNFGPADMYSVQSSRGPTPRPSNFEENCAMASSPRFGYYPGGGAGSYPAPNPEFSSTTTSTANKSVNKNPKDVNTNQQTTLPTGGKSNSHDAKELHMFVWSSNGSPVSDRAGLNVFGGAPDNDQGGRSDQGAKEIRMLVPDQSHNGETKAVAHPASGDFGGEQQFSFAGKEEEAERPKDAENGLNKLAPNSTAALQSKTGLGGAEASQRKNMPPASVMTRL

T6: PIN2 hydrophilic loop, amino acids 167-484 (Arabidopsis thaliana) (UniProt Q9LU77)
T6 sequence: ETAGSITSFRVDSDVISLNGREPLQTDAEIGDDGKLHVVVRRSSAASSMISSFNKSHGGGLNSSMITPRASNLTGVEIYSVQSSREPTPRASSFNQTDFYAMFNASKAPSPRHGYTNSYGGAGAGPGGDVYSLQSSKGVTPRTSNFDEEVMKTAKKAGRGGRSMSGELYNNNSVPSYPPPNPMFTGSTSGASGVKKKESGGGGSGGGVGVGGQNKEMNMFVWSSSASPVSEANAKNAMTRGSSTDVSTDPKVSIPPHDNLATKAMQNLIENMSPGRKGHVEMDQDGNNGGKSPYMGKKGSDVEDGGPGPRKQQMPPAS

T7: PIN4 hydrophilic loop, amino acids 168-457 (Arabidopsis thaliana) (UniProt Q8RWZ6)
T7 sequence: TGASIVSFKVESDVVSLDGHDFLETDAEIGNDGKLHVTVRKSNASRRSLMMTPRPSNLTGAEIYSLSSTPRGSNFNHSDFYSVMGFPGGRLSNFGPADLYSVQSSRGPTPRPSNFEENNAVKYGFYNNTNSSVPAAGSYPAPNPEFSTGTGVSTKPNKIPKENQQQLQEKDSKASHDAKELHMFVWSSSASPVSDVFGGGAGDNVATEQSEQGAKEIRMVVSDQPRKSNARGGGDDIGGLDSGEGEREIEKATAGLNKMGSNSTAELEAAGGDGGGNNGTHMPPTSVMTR

B1: PIN6 hydrophilic loop, amino acids 167-411 (domain or fragment, UniProt Q9SQH6 167-411)
chain: GQAAGSIAKIQVDDDVISLDGMDPLRTETETDVNGRIRLRIRRSVSSVPDSVMSSSLCLTPRASNLSNAEIFSVNTPNNRFFHGGGGSGTLQFYNGSNEIMFCNGDLGGFGFTRPGLGASPRRLSGYASSDAYSLQPTPRASNFNELDVNGNGTPVWMKSPAAGRIYRQSSPKMMWESGQRHAAKDINGSVPEKEISFRDALKAAPQATAAGGGASMEEGAAGKDTTPVAAIGKQEMPSAIVMMR
B2: PIN8 loop, amino acids 157-218 (domain or fragment, UniProt Q9LFP6 157-218)
chain: T4 sequence
B3: PIN7 hydrophilic loop, amino acids 167-460 (domain or fragment, UniProt Q940Y5 167-460)
chain: T3 sequence
B4: PIN1 hydrophilic loop (PIN1 HL), amino acids 158-460 (domain or fragment, UniProt Q9C6B8 158-460)
chain: T2 sequence
B5: PIN4 hydrophilic loop, amino acids 168-457 (domain or fragment, UniProt Q8RWZ6 168-457)
chain: T7 sequence
B6: PIN2 hydrophilic loop, amino acids 167-484 (domain or fragment, UniProt Q9LU77 167-484)
chain: T6 sequence
B7: PIN3 hydrophilic loop, amino acids 167-482 (domain or fragment, UniProt Q9S7Z8 167-482)
chain: T5 sequence

Results are given in words; binding and its absence hold for the method and conditions named. Some binding calls cover weakened binding; strength is not graded here.

For the first assay, the target named is T1, PIN5 loop, amino acids 152-200 (Arabidopsis thaliana). Description: two-hybrid; PJ69-2A yeast, constructs paired by mating in a matrix; loops fused to GAL4 AD (pDEST22) and GAL4 BD (pDEST32); growth on solid -L -T -H drop-out medium with 3 mM 3AT.
Regarding B1, the binding result is on record as “no binding”.

Turning to B2, the binding result is reported as “no binding”.

Take LEFRKAGFSSNNISDVQVDNINIESGKRETVVVGEKSFLEVMSLVWLKL (domain or fragment, UniProt Q9FFD0 152-200) [PIN5 loop, amino acids 152-200]: the binding entry is listed as “no binding”.

With B3, the binding result is on record as “no binding”.

Another assay deals with T2, PIN1 hydrophilic loop (PIN1 HL), amino acids 158-460 (Arabidopsis thaliana). Described as above.
On to B1, for which the binding result was “no binding”.

Turning to B4, the binding result was “binds”.

As for B2, the binding entry is listed as “no binding”.

For LEFRKAGFSSNNISDVQVDNINIESGKRETVVVGEKSFLEVMSLVWLKL (domain or fragment, UniProt Q9FFD0 152-200) [PIN5 loop, amino acids 152-200], the binding entry is listed as “no binding”.

Turning to B5, the binding entry was “no binding”.

Consider B3, for which the binding result is given as “no binding”.

For the molecule B6, the binding result is “no binding”.

For the molecule B7, the binding result was “no binding”.

The next assay addresses T3, PIN7 hydrophilic loop, amino acids 167-460 (Arabidopsis thaliana). Described as above.
For the molecule B1, the binding result is “no binding”.

On to B2, for which the binding entry was “no binding”.

Turning to B3, the binding entry is given as “no binding”.

The next assay has as its target T4, PIN8 loop, amino acids 157-218 (Arabidopsis thaliana). The assay is described as above.
As to B1, the binding entry is “no binding”.

With B2, the binding entry was “no binding”.

A further assay concerns the target T5, PIN3 hydrophilic loop, amino acids 167-482 (Arabidopsis thaliana). Described as above.
Regarding B1, the binding entry is given as “no binding”.

B2: the binding result is “no binding”.

On to LEFRKAGFSSNNISDVQVDNINIESGKRETVVVGEKSFLEVMSLVWLKL (domain or fragment, UniProt Q9FFD0 152-200) [PIN5 loop, amino acids 152-200], for which the binding entry is given as “no binding”.

For the molecule B5, the binding result is given as “no binding”.

Consider B3, for which the binding entry is on record as “no binding”.

In the case of B7, the binding entry is reported as “no binding”.

For another assay, the target named is T6, PIN2 hydrophilic loop, amino acids 167-484 (Arabidopsis thaliana). The assay is described as above.
With B1, the binding result was “no binding”.

As to B2, the binding entry is given as “no binding”.

LEFRKAGFSSNNISDVQVDNINIESGKRETVVVGEKSFLEVMSLVWLKL (domain or fragment, UniProt Q9FFD0 152-200) [PIN5 loop, amino acids 152-200]: the binding entry is reported as “no binding”.

With B5, the binding entry is given as “no binding”.

Take B3: the binding entry is “no binding”.

On to B6, for which the binding result is recorded as “no binding”.

Turning to B7, the binding entry is given as “no binding”.

The target in another assay is T7, PIN4 hydrophilic loop, amino acids 168-457 (Arabidopsis thaliana). The description is as above.
In the case of B1, the binding result is given as “no binding”.

As for B2, the binding entry was “no binding”.

Take LEFRKAGFSSNNISDVQVDNINIESGKRETVVVGEKSFLEVMSLVWLKL (domain or fragment, UniProt Q9FFD0 152-200) [PIN5 loop, amino acids 152-200]: the binding entry is “no binding”.

For the molecule B5, the binding entry was “no binding”.

On to B3, for which the binding entry is on record as “no binding”.

The values are drawn from publication PMC9181416.
